Measured data: PubChem BioAssay AID652243 (Drosophila RNAi Screening Center, 2013)

Assay: 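Knock-downs that decrease or increase androgen receptor reporter signal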 (primary screen)
Cell system: Drosophila S2R+ cells
Reagent: long dsRNA against Drosophila genes
Time to read-out: 72 h (48 h, then 24 h hormone)
Treatment: synthetic androgen R1881 at 10 nM for 24 h
Measurement: 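Firefly light from an androgen-responsive reporter and Renilla control light per well, raw and unnormalised, for each of two replicates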
Scale: firefly reporter light: higher = more light from androgen-responsive reporter; Renilla control light: higher = more constitutive control signal (cell number, transfection)
Rule for the call: 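Across duplicate plates, a knock-down whose log firefly/Renilla ratio shifted a set fold down or up from the GFP/LacZ control mean was a hit; the downward cut appears as both 1.5 and 3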
Meaning of the calls: active = hit: reporter lowered or raised; inactive = no hit
In all, the deposit lists about 24,000 reagents; shown is a random part of those with a known target gene and a result. Of all reagents, 246 (1%) got an active call. 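Plates not normalised; calls are printed but the firefly/Renilla ratio behind them is not deposited; fold cut for lowering reported inconsistently.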 The raw values are shown without normalisation. A number with no mark means an inactive call. The numbers tell different reagents against one gene apart. Not stated in the record: the amount of reagent.

Dpp10 #1
- firefly reporter light, replicate 1: 1.63e5
- firefly reporter light, replicate 2: 78133
- Renilla control light, replicate 1: 2.06e5
- Renilla control light, replicate 2: 1.29e5

Dpp10 #2
- firefly reporter light, replicate 1: 1.22e5
- firefly reporter light, replicate 2: 1.04e5
- Renilla control light, replicate 1: 1.33e6
- Renilla control light, replicate 2: 1.03e6

CG7326
- firefly reporter light, replicate 1: 2.87e5
- firefly reporter light, replicate 2: 96566
- Renilla control light, replicate 1: 1.08e6
- Renilla control light, replicate 2: 4.31e5

Myo31DF #1
- firefly reporter light, replicate 1: 9.74e5
- firefly reporter light, replicate 2: 9.00e5
- Renilla control light, replicate 1: 2.12e6
- Renilla control light, replicate 2: 2.32e6

Myo31DF #2
- firefly reporter light, replicate 1: 7.68e5
- firefly reporter light, replicate 2: 7.53e5
- Renilla control light, replicate 1: 1.09e6
- Renilla control light, replicate 2: 1.02e6

Myo31DF #3
- firefly reporter light, replicate 1: 3.83e5
- firefly reporter light, replicate 2: 3.67e5
- Renilla control light, replicate 1: 7.05e5
- Renilla control light, replicate 2: 5.96e5

CR14798
- firefly reporter light, replicate 1: 2.18e5
- firefly reporter light, replicate 2: 2.47e5
- Renilla control light, replicate 1: 4.12e6
- Renilla control light, replicate 2: 3.39e6

CG9649 #1
- firefly reporter light, replicate 1: 17679
- firefly reporter light, replicate 2: 29250
- Renilla control light, replicate 1: 2.14e5
- Renilla control light, replicate 2: 2.33e5

CG9649 #2
- firefly reporter light, replicate 1: 7.11e5
- firefly reporter light, replicate 2: 7.27e5
- Renilla control light, replicate 1: 1.14e6
- Renilla control light, replicate 2: 1.07e6

Gr59c
- firefly reporter light, replicate 1: 2.14e5
- firefly reporter light, replicate 2: 2.67e5
- Renilla control light, replicate 1: 2.09e6
- Renilla control light, replicate 2: 1.69e6

4 entries already listed, arranged by “Renilla control light, replicate 2”, lowest first.
CG9649 #1
- firefly reporter light, replicate 1: 17679
- firefly reporter light, replicate 2: 29250
- Renilla control light, replicate 1: 2.14e5
- Renilla control light, replicate 2: 2.33e5

Myo31DF #3
- firefly reporter light, replicate 1: 3.83e5
- firefly reporter light, replicate 2: 3.67e5
- Renilla control light, replicate 1: 7.05e5
- Renilla control light, replicate 2: 5.96e5

Myo31DF #2
- firefly reporter light, replicate 1: 7.68e5
- firefly reporter light, replicate 2: 7.53e5
- Renilla control light, replicate 1: 1.09e6
- Renilla control light, replicate 2: 1.02e6

CR14798
- firefly reporter light, replicate 1: 2.18e5
- firefly reporter light, replicate 2: 2.47e5
- Renilla control light, replicate 1: 4.12e6
- Renilla control light, replicate 2: 3.39e6

Further records follow:
Leash #1
- firefly reporter light, replicate 1: 95225
- firefly reporter light, replicate 2: 1.03e5
- Renilla control light, replicate 1: 1.89e6
- Renilla control light, replicate 2: 1.95e6

Leash #2
- firefly reporter light, replicate 1: 4.86e5
- firefly reporter light, replicate 2: 3.04e5
- Renilla control light, replicate 1: 1.24e6
- Renilla control light, replicate 2: 1.09e6

CG18568 #1
- firefly reporter light, replicate 1: 8.84e5
- firefly reporter light, replicate 2: 7.39e5
- Renilla control light, replicate 1: 2.40e6
- Renilla control light, replicate 2: 2.14e6

CG18568 #2
- firefly reporter light, replicate 1: 9.45e5
- firefly reporter light, replicate 2: 9.61e5
- Renilla control light, replicate 1: 8.34e5
- Renilla control light, replicate 2: 7.66e5

Mlc-c #1
- firefly reporter light, replicate 1: 1.01e5
- firefly reporter light, replicate 2: 75579
- Renilla control light, replicate 1: 6.85e5
- Renilla control light, replicate 2: 3.47e5

Mlc-c #2
- firefly reporter light, replicate 1: 2.64e5
- firefly reporter light, replicate 2: 2.36e5
- Renilla control light, replicate 1: 7.06e5
- Renilla control light, replicate 2: 4.28e5

CG8560 #1
- firefly reporter light, replicate 1: 1.37e6
- firefly reporter light, replicate 2: 7.76e5
- Renilla control light, replicate 1: 1.70e6
- Renilla control light, replicate 2: 8.26e5

CG8560 #2
- firefly reporter light, replicate 1: 9.03e5
- firefly reporter light, replicate 2: 8.95e5
- Renilla control light, replicate 1: 1.13e6
- Renilla control light, replicate 2: 1.05e6

robl22E
- firefly reporter light, replicate 1: 93266
- firefly reporter light, replicate 2: 1.41e5
- Renilla control light, replicate 1: 7.97e5
- Renilla control light, replicate 2: 8.87e5

Mal-A5 #1
- firefly reporter light, replicate 1: 9.46e5
- firefly reporter light, replicate 2: 4.57e5
- Renilla control light, replicate 1: 1.86e6
- Renilla control light, replicate 2: 1.24e6

Mal-A5 #2
- firefly reporter light, replicate 1: 5.08e5
- firefly reporter light, replicate 2: 4.84e5
- Renilla control light, replicate 1: 8.38e5
- Renilla control light, replicate 2: 8.38e5

jb
- firefly reporter light, replicate 1: 2.81e5
- firefly reporter light, replicate 2: 1.95e5
- Renilla control light, replicate 1: 1.07e6
- Renilla control light, replicate 2: 4.25e5

CG8960 #1
- firefly reporter light, replicate 1: 9.98e5
- firefly reporter light, replicate 2: 8.74e5
- Renilla control light, replicate 1: 2.64e6
- Renilla control light, replicate 2: 2.33e6

CG8960 #2
- firefly reporter light, replicate 1: 3.22e5
- firefly reporter light, replicate 2: 3.08e5
- Renilla control light, replicate 1: 7.86e5
- Renilla control light, replicate 2: 7.58e5

CG34242
- firefly reporter light, replicate 1: 9.17e5
- firefly reporter light, replicate 2: 9.50e5
- Renilla control light, replicate 1: 2.27e6
- Renilla control light, replicate 2: 2.10e6

Pcd
- firefly reporter light, replicate 1: 1.46e5
- firefly reporter light, replicate 2: 1.59e5
- Renilla control light, replicate 1: 2.05e6
- Renilla control light, replicate 2: 2.96e6

PolA2
- firefly reporter light, replicate 1: 1.09e5
- firefly reporter light, replicate 2: 92688
- Renilla control light, replicate 1: 1.92e6
- Renilla control light, replicate 2: 1.85e6
